According to publication doi:10.1101/726224 (bioRxiv, 2019):
No constants are given. Whether binding was seen depends on the method and setting. Some results given as binding are weak or reduced against the parent protein; the word gives no strength. For some assays here: Sequences can lack the tags named with a protein.

By UniProt entry, the sequences of proteins in these tests, tags left out.
UniProt P14635, whole entry: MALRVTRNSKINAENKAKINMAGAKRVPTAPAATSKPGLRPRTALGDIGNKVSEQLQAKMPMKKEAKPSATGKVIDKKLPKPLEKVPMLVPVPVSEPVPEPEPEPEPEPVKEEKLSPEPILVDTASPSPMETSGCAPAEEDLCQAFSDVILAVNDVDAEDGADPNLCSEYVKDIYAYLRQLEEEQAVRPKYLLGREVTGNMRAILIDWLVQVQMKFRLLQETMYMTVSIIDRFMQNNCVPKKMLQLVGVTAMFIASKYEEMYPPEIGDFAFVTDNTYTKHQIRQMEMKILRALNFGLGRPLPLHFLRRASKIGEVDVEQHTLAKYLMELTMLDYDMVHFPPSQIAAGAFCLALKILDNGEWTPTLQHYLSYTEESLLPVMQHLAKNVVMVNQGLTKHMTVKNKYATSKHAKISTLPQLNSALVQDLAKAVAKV

How the values were obtained:
[1] = target: T1, MBP-MAD1^41-62 (human) (UniProt Q9Y6D9); test: SEC
T1 sequence: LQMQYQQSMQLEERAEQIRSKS

[2] = target: T2, LacI-MAD1-FL (full length: aa1-718) (human) (UniProt Q9Y6D9); test: LacO/LacI tethering and co-recruitment
T2 sequence: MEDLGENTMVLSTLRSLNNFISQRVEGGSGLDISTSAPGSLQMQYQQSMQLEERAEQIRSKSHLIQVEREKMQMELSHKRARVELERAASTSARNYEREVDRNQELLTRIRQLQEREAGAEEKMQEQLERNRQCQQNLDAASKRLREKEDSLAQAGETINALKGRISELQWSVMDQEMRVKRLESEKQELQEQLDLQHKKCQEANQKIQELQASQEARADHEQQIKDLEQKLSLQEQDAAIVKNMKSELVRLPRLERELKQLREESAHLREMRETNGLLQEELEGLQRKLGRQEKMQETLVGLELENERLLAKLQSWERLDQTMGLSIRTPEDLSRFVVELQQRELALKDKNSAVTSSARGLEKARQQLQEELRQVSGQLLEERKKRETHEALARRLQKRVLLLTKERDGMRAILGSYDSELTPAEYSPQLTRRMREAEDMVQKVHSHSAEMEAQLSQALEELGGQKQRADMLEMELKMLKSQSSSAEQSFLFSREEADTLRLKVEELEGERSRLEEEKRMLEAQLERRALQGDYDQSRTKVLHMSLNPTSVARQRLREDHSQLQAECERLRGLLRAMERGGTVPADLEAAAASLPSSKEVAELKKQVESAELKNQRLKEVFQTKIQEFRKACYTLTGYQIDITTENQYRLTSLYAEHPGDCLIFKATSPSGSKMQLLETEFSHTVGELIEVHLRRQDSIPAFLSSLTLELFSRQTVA

[3] = target: T3, MBP-MAD1^1-92 (human) (UniProt Q9Y6D9); test: SEC
T3 sequence: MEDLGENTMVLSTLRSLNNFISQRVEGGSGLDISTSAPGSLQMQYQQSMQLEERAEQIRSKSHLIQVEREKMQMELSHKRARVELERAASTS

Row | Substance | binding [1] | binding [2] | binding [3]
1 | CDK1:Cyclin B1^165-433 complex (from UniProt P06493;P14635) | binds | – | –
2 | Cyclin B1 in U2OS cells (immunofluorescence) (from UniProt P14635 1-433) | – | binds | –
3 | Cyclin B1-mCherry (from UniProt P14635 1-433) | – | binds | –
4 | GST-CDK1:Cyclin B1^165-433 complex (from UniProt P06493;P14635) | binds | – | binds
